In patent publication US12509422B2, “Bisamide compound and application thereof” (METISA BIOTECHNOLOGY CO., LTD, priority 2019, dated 2025):
Some entries share one result that the patent states for a list of compounds.

Key:
Assay type in all cases: in vivo
[1] = tested on: Leucania separata; assay: Insecticidal activity against Leucania separata, airbrush spray on corn leaf sections; settings: dose 0.05 mg/L, 3 days after the treatment, 3rd instar larvae
[2] = tested on: Plutella xylostella; assay: Insecticidal activity against Plutella xylostella, airbrush spray on cabbage leaf discs; settings: 3 days after the treatment, 3rd instar larvae
[3] = tested on: Chilo suppressalis; assay: Insecticidal activity against Chilo suppressalis, sprayed Oryza sativa seedlings, stalks fed to larvae; settings: 3 days after the treatment, 3rd instar larvae
Procedure: The compounds of the invention were determined for the insecticidal activities against several insects. The determination method was as follows:
After being dissolved in a mixed solvent of acetone/methanol (1:1), the test compound was diluted with water containing 0.1% (wt) Tween 80 to the desired concentration.
With Leucania separata, Plutella xylostella, and Chilo suppressalis as targets, airbrush spray method was used for the determination of activity.
Determination method: 1) Preparation of Oryza sativa seedlings: Oryza sativa was cultivated in a constant temperature room (a temperature of 26-28° C., a relative humidity of about 60-80%, and a light illumination of 16hL:8hD) in a small plastic cup with a diameter of 4.5 cm and a height of 4 cm, and when the Oryza sativa grew up to the 4-5 leaf stage, robust and consistent Oryza sativa seedlings were selected for chemical treatment, and 3 repetitions were performed for each treatment. 2) Preparation for test insects: Chilo suppressalis at 3rd instar larvae were raised continuously indoors. 3) The Oryza sativa stems were sprayed and insects were introduced. Spraying was performed uniformly on the whole plant of the Oryza sativa seedlings, with 15 ml of compound solution for each treatment. The blank control was treated first, and then the above operations were repeated in the order of the test concentration from low to high. After the Oryza sativa seedlings were sprayed, they were placed in a cool place to dry the liquid, and about 5 cm of stalks at the base of the stems were cut and fed to the test insects. A glass petri dish with a diameter of 90 mm was placed with filter paper at the bottom of the dish, and then was moisturized by adding water. After that, about 5 rice stalks and 10 larvae were placed in each dish, and the petri dish was sealed with a non-woven fabric and placed in a constant temperature room for cultivation. The number of remaining live insects was investigated 3 days after the treatment.
The compounds 1, 3, 7, 11 of this disclosure and the comparative compounds were selected for a parallel comparison test of the insecticidal activity against Chilo suppressalis (3 days after the treatment), through a same determination method as that described above.

[4] = tested on: cat fleas; assay: Insecticidal test on cat fleas, compound film in petri dish; settings: treatment dose 1 μg/cm^2, adult cat fleas, after 72 h, 25° C.
[5] = tested on: American dog ticks; assay: Insecticidal test on American dog ticks, compound film in petri dish; settings: treatment dose 1 g/cm^2, first nymphs, after 24 h, 25° C.

| Compound | lethality rate against Leucania separata [1] [%] | lethality rate against Plutella xylostella ([2]; dose 0.5 mg/L) [%] | lethality rate against Chilo suppressalis ([3]; dose 1 mg/L) [%] | mortality rate of the insects (cat fleas) [4] | mortality rate of the insects (American dog ticks) [5] | lethality rate against Plutella xylostella ([2]; dose 0.05 mg/L) [%] | lethality rate against Chilo suppressalis ([3]; dose 0.5 mg/L) [%] | lethality rate against Chilo suppressalis ([3]; dose 0.25 mg/L) [%] |
| --- | --- | --- | --- | --- | --- | --- | --- | --- |
| O=C(Nc1c(Br)cc(C(F)(C(F)(F)F)C(F)(F)F)cc1I)c1cccc(N(CC2CC2)C(=O)c2ccc(F)nc2)c1F [Compound 2] | ≥ 90 | ≥ 90 | ≥ 90 | over 90% | over 90% |  |  |  |
| N#Cc1ccc(C(=O)N(CC2CC2)c2cccc(C(=O)Nc3c(Br)cc(C(F)(C(F)(F)F)C(F)(F)F)cc3Br)c2F)cn1 [Compound 9] | ≥ 90 | ≥ 90 | ≥ 90 | over 90% | over 90% |  |  |  |
| O=C(Nc1c(I)cc(C(F)(C(F)(F)F)C(F)(F)F)cc1C(F)(F)F)c1cccc(N(CC2CC2)C(=O)c2ccc(C(F)(F)F)nc2)c1F [Compound 8] | ≥ 90 | ≥ 90 | ≥ 90 | over 90% | over 90% | ≥ 90 | ≥ 90 |  |
| N#Cc1ccc(C(=O)N(CC2CC2)c2cccc(C(=O)Nc3c(I)cc(C(F)(C(F)(F)F)C(F)(F)F)cc3C(F)(F)F)c2F)cn1 [Compound 12] |  |  |  | over 90% | over 90% |  |  |  |
| N#Cc1ccc(C(=O)N(CC2CC2)c2cccc(C(=O)Nc3c(Br)cc(C(F)(C(F)(F)F)C(F)(F)F)cc3C(F)(F)F)c2F)cn1 [Compound 11] |  |  |  | over 90% | over 90% |  |  |  |
| O=C(Nc1c(Br)cc(C(F)(C(F)(F)F)C(F)(F)F)cc1C(F)(F)F)c1cccc(N(CC2CC2)C(=O)c2ccc(F)nc2)c1F [Compound 3] |  |  |  | over 90% | over 90% |  |  |  |
| O=C(Nc1c(I)cc(C(F)(C(F)(F)F)C(F)(F)F)cc1C(F)(F)F)c1cccc(N(CC2CC2)C(=O)c2ccc(F)nc2)c1F [Compound 4] | ≥ 90 | ≥ 90 | ≥ 90 | over 90% | over 90% | ≥ 90 | ≥ 90 | ≥ 90 |
| N#Cc1ccc(C(=O)N(CC2CC2)c2cccc(C(=O)Nc3c(Br)cc(C(F)(C(F)(F)F)C(F)(F)F)cc3I)c2F)cn1 [Compound 10] | ≥ 90 | ≥ 90 | ≥ 90 | over 90% | over 90% |  |  |  |
